Inconclusive means that the source gave no clear call. Such entries were picked first, then a sample of the others. A potency beside an inconclusive call is a rough fit, not a confirmed value. Active and inactive are the calls of the source. The call rests on the fitted dose curve; in most records, active means well fitted curve in the direction sought with a large enough effect; inconclusive means small, poorly fitted or top-dose-only effect, or another doubt; inactive means no such curve, though single readings can be large; an effect the other way counts as inactive or inconclusive.
Tests used:
[1] = qHTS of pediatric cancer cell lines to identify multiple opportunities for drug repurposing: Confirmatory screen for A673 cells (AID 1347110);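 further: cells exposed to compound for 48 h before the viability read; nearly all actives have a fitted effect of over 65% in size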
Summary of the method: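 A673 cells at 500-1,000 cells/well were dosed 5 h after plating, in dilution series up to 46 uM final; primary runs used 8 or 11 points and confirmatory runs used 11 points. Viability was read by CellTiter-Glo luminescence after 48 h, against DMSO and 2.3 uM bortezomib controls.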

[2] = qHTS of pediatric cancer cell lines to identify multiple opportunities for drug repurposing: Confirmatory screen for BT-12 cells (AID 1347112);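 further: viability read after 48 h of compound exposure; nearly all actives have a fitted effect of over 55% in size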
Summary of the method: (§1)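 Cells (500-1,000/well) rested 5 h, then received compounds for 48 h; metabolically active cells were measured by CellTiter-Glo luminescence. Final concentrations spanned up to 46 µM (MIPE, 11-point) or 0.59 nM-46 µM (NPC, 8-point) in primary screens, 11-point in follow-ups.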

[3] = qHTS of pediatric cancer cell lines to identify multiple opportunities for drug repurposing: Confirmatory screen for LAN-5 cells (AID 1347113); settings: activity change, negative = cytotoxicity: at 45.9 µM (top of the series); further: nearly all actives have a fitted effect of over 65% in size
Summary of the method: as §1

[4] = qHTS of pediatric cancer cell lines to identify multiple opportunities for drug repurposing: Confirmatory screen for SJ-GBM2 cells (AID 1347116); further: nearly all actives have a fitted effect of over 60% in size
Summary of the method: (§2)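 Viability measured as metabolically active cells via CellTiter-Glo luminescence following 48 hours of compound exposure, 11-point dilutions in confirmatory testing. 500-1,000 cells/well plated 5 hours before dosing; controls were DMSO and 2.3 µM bortezomib.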

[5] = qHTS of pediatric cancer cell lines to identify multiple opportunities for drug repurposing: Confirmatory screen for TC32 cells (AID 1347118);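 further: cells exposed to compound for 48 h before the read; nearly all actives have a fitted effect of over 65% in size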
Summary of the method: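 Luminescent ATP read-out (CellTiter-Glo) of metabolically active TC32 cells after 48 h exposure. Concentration-response curves came from 11-point (MIPE, 0.78 nM–46 µM) or 8-point (NPC, 0.59 nM–46 µM) primary titrations; follow-up used 11 points.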

[6] = qHTS of pediatric cancer cell lines to identify multiple opportunities for drug repurposing: Confirmatory screen for MG 63 (6-TG R) cells (AID 1347119); settings: MG-63 (6-TG resistant) osteosarcoma viability; activity change, negative = cytotoxicity: at 45.9 µM (top of the series); further: nearly all actives have a fitted effect of over 55% in size
Summary of the method: as §1

[7] = qHTS of pediatric cancer cell lines to identify multiple opportunities for drug repurposing: Confirmatory screen for BT-37 cells (AID 1347117); further: nearly all actives have a fitted effect of over 55% in size
Summary of the method: as §1

[8] = qHTS of pediatric cancer cell lines to identify multiple opportunities for drug repurposing: Confirmatory screen for NB-EBc1 cells (AID 1347115); settings: NB-EBc1 neuroblastoma cells, viability (cytotoxicity); activity change, negative = cytotoxic: at 45.9 µM (top of the series);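 further: cells exposed to compound for 48 h before the viability read; nearly all actives have a fitted effect of over 45% in size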
Summary of the method: as §1

[9] = qHTS of pediatric cancer cell lines to identify multiple opportunities for drug repurposing: Confirmatory screen for DAOY cells (AID 1347114); further: nearly all actives have a fitted effect of over 65% in size
Summary of the method: as §2

[10] = qHTS of pediatric cancer cell lines to identify multiple opportunities for drug repurposing: Confirmatory screen for SK-N-MC cells (AID 1347111);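 further: cells exposed to compound for 48 h before the readout; nearly all actives have a fitted effect of over 70% in size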
Summary of the method: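 Seed 500-1,000 cells/well; rest 5 h at 37 degrees C. Pin-transfer compounds, 11-point titration. Incubate 48 h. Add CellTiter-Glo, 15 min RT, read luminescence.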
Potency means the concentration at half of the fitted maximal effect.

| SMILES | Potency [1] | Potency [2] | Potency [3] | Potency [4] | Potency [5] | Potency [6] | Potency [7] | Potency [8] | Potency [9] | Potency [10] |
| --- | --- | --- | --- | --- | --- | --- | --- | --- | --- | --- |
| CC=CC1=C(C(=O)O)N2C(=O)[C@H](NC(=O)[C@H](N)c3ccc(O)cc3)[C@@H]2SC1 | inconclusive: 6.57 µM [cytotoxic, full curve] | inactive | inactive | inconclusive: 2.61 µM [rising, partial curve] | inconclusive: 1.47 µM [cytotoxic, full curve, poor fit] | inactive | – | – | – | – |
| Cc1c(C(=O)Nc2ccc(N3C[C@@H](C)O[C@@H](C)C3)nc2)cccc1-c1ccc(OC(F)(F)F)cc1 | inconclusive: 16.5 µM [cytotoxic, partial curve] | inconclusive: 18.5 µM [cytotoxic, partial curve] | inactive | – | inconclusive: 26.1 µM [cytotoxic, single point] | – | inconclusive: 26.1 µM [cytotoxic, single point] | – | – | – |
| COc1ccc2c(c1)c(C1=C(c3c[nH]c4ccccc34)C(=O)NC1=O)cn2CCCN(C)C | inconclusive: 32.9 µM [cytotoxic, single point] | inconclusive: 36.9 µM [cytotoxic, single point] | – | inconclusive: 36.9 µM [cytotoxic, single point] | – | inactive | – | inconclusive: 13.1 µM [cytotoxic, partial curve, poor fit] | – | – |
| O=C(NC1CCNCC1)c1[nH]ncc1NC(=O)c1c(Cl)cccc1Cl | active: 0.414 µM | – | inconclusive: 1.51 µM [cytotoxic, full curve] | active: 1.31 µM | – | inconclusive: 6.76 µM [cytotoxic, full curve] | – | inconclusive: 10.7 µM [cytotoxic, partial curve] | – | – |
| FC(F)(F)c1ccc(C=Cc2nc(COc3ccc(CCCCn4ccnn4)cc3)co2)cc1 | inconclusive: 0.0657 µM [cytotoxic, full curve] | inconclusive: 0.208 µM [cytotoxic, full curve, poor fit] | inconclusive: 1.47 µM [cytotoxic, full curve] | – | inconclusive: 0.233 µM [cytotoxic, full curve] | – | inconclusive: 1.17 µM [cytotoxic, full curve, poor fit] | active: 0.369 µM | – | – |
| FC(F)c1nc2ccccc2n1-c1nc(N2CCOCC2)nc(N2CCOCC2)n1 | inconclusive: 3.69 µM [cytotoxic, full curve] | – | – | inactive | – | – | active: 1.47 µM | inconclusive: 5.85 µM [cytotoxic, partial curve] | inconclusive: 4.65 µM [cytotoxic, full curve] | – |
| COc1cc2c(cc1OC)[C@@H]1Cc3ccc(OC)c(OC)c3CN1CC2 | inactive | inconclusive: 18.5 µM [cytotoxic, partial curve, poor fit] | inconclusive: 0.414 µM [cytotoxic, full curve, poor fit] | inconclusive: 1.17 µM [cytotoxic, full curve, poor fit] | inconclusive: 0.369 µM [cytotoxic, full curve, poor fit] | inconclusive: 10.4 µM [cytotoxic, partial curve, poor fit] | inconclusive: 0.585 µM [cytotoxic, full curve, poor fit] | inconclusive: 1.04 µM [cytotoxic, full curve, poor fit] | – | – |
| O=C(NOC[C@H](O)CO)c1ccc(F)c(F)c1Nc1ccc(I)cc1F | inactive | inconclusive: 26.1 µM [cytotoxic, partial curve, poor fit] | inconclusive: 0.0023 µM [cytotoxic, full curve, poor fit] | – | inactive | inconclusive: 0.0585 µM [cytotoxic, full curve, poor fit] | inconclusive: 7.37 µM [cytotoxic, partial curve] | inconclusive: 0.0208 µM [cytotoxic, full curve] | – | – |
| CNC(=O)c1cc(Oc2ccc(NC(=O)Nc3ccc(Cl)c(C(F)(F)F)c3)cc2)ccn1 | active: 23.3 µM | inconclusive: 29.3 µM [cytotoxic, single point] | active: 23.3 µM | inconclusive: 36.9 µM [cytotoxic, single point] | active: 18.5 µM | inconclusive: 8.27 µM [cytotoxic, full curve] | – | – | – | – |
| COc1cc(Nc2ncc3c(n2)-c2ccc(Cl)cc2C(c2c(F)cccc2OC)=NC3)ccc1C(=O)O | inconclusive: 4.14 µM [cytotoxic, partial curve] | – | inconclusive: 0.0928 µM [cytotoxic, full curve] | inactive | – | active: 0.233 µM | inconclusive: 3.69 µM [cytotoxic, partial curve] | – | – | – |
| CS(=O)(=O)Nc1ccc([N+](=O)[O-])cc1Oc1ccccc1 | inactive | – | – | inconclusive: 36.9 µM [cytotoxic, single point] | inconclusive: 26.1 µM [cytotoxic, single point] | – | inconclusive: 14.7 µM [cytotoxic, partial curve] | inconclusive: 5.22 µM [cytotoxic, full curve, poor fit] | – | inconclusive: 23.3 µM [cytotoxic, partial curve, poor fit] |
| CC(C)[C@H](C(=O)Nc1ccc(C(=O)NO)cc1)c1ccccc1 | active: 1.04 µM | active: 9.27 µM | – | – | – | – | – | active: 0.928 µM | – | – |
| CN1CCN(c2ncc(-c3cc(Cl)cc(Cl)c3Cl)c(N)n2)CC1 | inconclusive: 20.8 µM [cytotoxic, partial curve, poor fit] | inconclusive: 32.9 µM [cytotoxic, partial curve, poor fit] | inconclusive: 26.1 µM [cytotoxic, single point] | inconclusive: 0.0037 µM [rising, full curve] | inconclusive: 36.9 µM [cytotoxic, single point] | – | – | inactive | – | – |
| N#CC(=C1Nc2ccccc2S1)c1ccnc(OCc2ccc(CN3CCOCC3)cc2)n1 | inconclusive: 26.1 µM [cytotoxic, single point] | inconclusive: 14.7 µM [cytotoxic, partial curve] | inactive | inconclusive: 0.104 µM [rising, full curve, poor fit] | inconclusive: 18.5 µM [cytotoxic, partial curve, poor fit] | – | inconclusive: 14.7 µM [cytotoxic, partial curve] | – | – | – |
| CC(C)C[C@H](NC(=O)c1cc2ccccc2s1)C(=O)N1CCN(C(=O)[C@H](CO)NS(=O)(=O)c2ccc(Cl)cc2Cl)CC1 | inconclusive: 36.9 µM [cytotoxic, single point] | – | – | inactive | inconclusive: 26.1 µM [cytotoxic, single point] | inconclusive: 26.1 µM [cytotoxic, single point] | – | inconclusive: 20.8 µM [cytotoxic, single point] | – | inconclusive: 36.9 µM [cytotoxic, single point] |
| CC(C)NC[C@@H](C(=O)N1CCN(c2ncnc3c2[C@H](C)C[C@H]3O)CC1)c1ccc(Cl)cc1 | inconclusive: 2.33 µM [cytotoxic, partial curve, poor fit] | inactive | – | inactive | active: 4.14 µM | – | inconclusive: 16.5 µM [cytotoxic, partial curve, poor fit] | inconclusive: 18.5 µM [cytotoxic, partial curve] | – | – |
| CCOC(=O)c1ccc(C#Cc2ccc3c(c2)C(C)(C)CCS3)nc1 | inconclusive: 20.8 µM [cytotoxic, partial curve, poor fit] | – | inactive | inconclusive: 11.7 µM [rising, single point] | inconclusive: 20.8 µM [cytotoxic, partial curve, poor fit] | inconclusive: 0.0329 µM [cytotoxic, full curve, poor fit] | inactive | – | – | – |
| CC1(C)OC2CC3C4CC(F)C5=CC(=O)C=CC5(C)C4C(O)CC3(C)[C@]2(C(=O)CO)O1 (stereo partly drawn) | inactive | inactive | inactive | inactive | inactive | – | – | – | – | – |
| COc1ccc(-c2ccc3cc(C(=O)O)ccc3c2)cc1C12CC3CC(CC(C3)C1)C2 | active: 5.85 µM | – | inconclusive: 10.4 µM [cytotoxic, full curve, poor fit] | inconclusive: 0.0037 µM [cytotoxic, full curve, poor fit] | – | inconclusive: 0.0827 µM [cytotoxic, full curve, poor fit] | – | inconclusive: 6.57 µM [cytotoxic, partial curve] | – | – |
| CC(C)C[C@H](NC(=O)[C@@H](NC(=O)c1cccc(-c2ccccc2)n1)[C@@H](C)O)B(O)O | active: 0.0737 µM | active: 0.0827 µM | – | – | – | – | – | active: 0.0585 µM | – | – |
| Cc1ccc(Nc2nccc(N(C)c3ccc4c(C)n(C)nc4c3)n2)cc1S(N)(=O)=O | inconclusive: 13.1 µM [cytotoxic, single point] | inconclusive: 5.85 µM [cytotoxic, full curve] | inactive | inconclusive: 14.7 µM [cytotoxic, partial curve, poor fit] | inconclusive: 11.7 µM [cytotoxic, partial curve] | – | inactive | inconclusive: 11.7 µM [cytotoxic, partial curve] | inconclusive: 14.7 µM [cytotoxic, partial curve] | – |

Some of the entries so far, with tabs:
SMILES	Potency [1]	Potency [2]	Potency [3]	Potency [4]	Potency [5]	Potency [6]	Potency [7]	Potency [8]	Potency [9]	Potency [10]
FC(F)c1nc2ccccc2n1-c1nc(N2CCOCC2)nc(N2CCOCC2)n1	inconclusive: 3.69 µM [cytotoxic, full curve]	–	–	inactive	–	–	active: 1.47 µM	inconclusive: 5.85 µM [cytotoxic, partial curve]	inconclusive: 4.65 µM [cytotoxic, full curve]	–
COc1cc2c(cc1OC)[C@@H]1Cc3ccc(OC)c(OC)c3CN1CC2	inactive	inconclusive: 18.5 µM [cytotoxic, partial curve, poor fit]	inconclusive: 0.414 µM [cytotoxic, full curve, poor fit]	inconclusive: 1.17 µM [cytotoxic, full curve, poor fit]	inconclusive: 0.369 µM [cytotoxic, full curve, poor fit]	inconclusive: 10.4 µM [cytotoxic, partial curve, poor fit]	inconclusive: 0.585 µM [cytotoxic, full curve, poor fit]	inconclusive: 1.04 µM [cytotoxic, full curve, poor fit]	–	–
